Laboratory results from US8889378B2, “Cytochrome C synthesis inhibitors” (priority 2006, dated 2014).

Assays:
[1] = test system: system I cytochrome c biogenesis; assay: Metalloprotoporphyrin IX addition, E. coli Δccm with pRGK333 (system I), pRGK332 and pHPEX2; type: cell-based; conditions: fluorescence, c4 immunoblot
Description: (§1) Overnight cultures of an E. coli Δccm strain (or E. coli ΔccmΔhemA) harboring either pRGK333 (system I) or pRGK348 (system II-chuA), pRGK332 (cytochrome c4:6×His), and pHPEX2 (Varnado and Goodwin, 2004) were diluted into fresh LB broth (containing the appropriate antibiotics and 8 μM hemin for the E. coli ΔccmΔhemA strain) and incubated with aeration at 37° C. until the OD600 was approximately 0.5. […] Arabinose (0.2%) was added after one hour and incubation continued for an additional three hours. Cells were harvested and soluble protein was extracted using B-PER (Feissner et al., 2006). […] Prior to heme stain and c4 immunoblot, the nitrocellulose blots were screened for fluorescence on an LAS-1000plus Luminescent Image Analyzer CCD camera system (Fujifilm; Tokyo, Japan).
(§2) Heme stains were performed as described (Feissner et al., 2003) using SuperSignal Femto chemiluminescent substrate (Pierce). Heme stain quantitation used LOLITA II (Low Light Test Array; raytestUSA; Wilmington, N.C.) for standardization of light intensity detection on an LAS1000plus Luminescent Image Analyzer CCD camera system. […] Chemiluminescence from heme stains and Western blots were detected using an LAS-1000plus Luminescent Image Analyzer CCD camera system (Fujifilm). Protein concentrations were determined using the BCA assay (Pierce) using BSA as a standard. […]

[2] = test system: system II cytochrome c biogenesis (H. pylori CcsBA); assay: Metalloprotoporphyrin IX addition, E. coli Δccm with pRGK348 (system II-chuA) and pRGK332; type: cell-based; conditions: fluorescence, c4 immunoblot
Description: as §1, §2

SMILES	incorporation into cytochrome c4:6×His by system I [1]	incorporation into cytochrome c4:6×His by system II [2]
C=Cc1c2[n-]c(c1C)/C=c1\[n-]/c(c(C)c1C=C)=C\c1[n-]c(c(CCC(=O)O)c1C)C=c1[n-]/c(c(C)c1CCC(=O)O)=C\2.[Sn+4] [SnPPIX, tin (IV) protoporphyrin IX]	not being incorporated	not being incorporated
C=CC1=C(C)c2cc3[n-]c(cc4[n-]c(cc5nc(cc1n2)C(C)=C5C=C)c(C)c4CCC(=O)O)c(CCC(=O)O)c3C.[Zn+2] [ZnPPIX, zinc (II) protoporphyrin IX]	not incorporated	not incorporated
